# Experimental data taken from patent publication US10174312B2 (priority 2014, dated 2019).
# Starred links: 1 amine or outer side, 2 acyl side, 3 side chain; linkers in the order of their positions; H or OH if unused. Positions of bridges follow the written chain, without caps; N, C: chain ends. Non-standard residues stand in square brackets, D forms with d. Residues, ends and D or L forms follow the SMILES beside them. Chains are numbered I, II in the order given. Actinocin(9to1) = Cc1c2oc3c(C)ccc(C(=O)[*:1])c3nc-2c(C(=O)[*:2])c(N)c1=O; NMeV = CN[C@H](C(=O)O)C(C)C; Sar = CNCC(=O)O
# Test system: S. cerevisiae heterozygous deletion strain library
# Assay: S. cerevisiae chemical-genetic profile compendium compared for ecDT screening
# Details: not given
Molecule,"tentative drug target genes, Diverged","tentative drug target genes, No Ortholog"
O=C(CCCN1CCC(O)(c2ccc(Cl)cc2)CC1)c1ccc(F)cc1 [Haloperidol],113,46

# Same assay, conditions: S. cerevisiae; number of genes
Molecule,"tentative drug target genes, Conserved","tentative drug target genes, Diverged","tentative drug target genes, No Ortholog"
CN(Cc1cnc2nc(N)nc(N)c2n1)c1ccc(C(=O)N[C@@H](CCC(=O)O)C(=O)O)cc1 [Methotrexate],4,1218,603
CC(=O)[C@H]1CC[C@H]2[C@@H]3CCC4=CC(=O)CC[C@]4(C)[C@H]3CC[C@]12C [Progesterone],1,39,17
"Cc1c2oc3c(C)ccc(C(=O)N[C@@H]4C(=O)N[C@H](C(C)C)C(=O)N5CCC[C@H]5C(=O)N(C)CC(=O)N(C)[C@@H](C(C)C)C(=O)O[C@@H]4C)c3nc-2c(C(=O)N[C@@H]2C(=O)N[C@H](C(C)C)C(=O)N3CCC[C@H]3C(=O)N(C)CC(=O)N(C)[C@@H](C(C)C)C(=O)O[C@@H]2C)c(N)c1=O [Actinomycin D] (I: T[dV]P[Sar][NMeV] / II: T[dV]P[Sar][NMeV]; ester I:1-I:C, II:1-II:C; linker I:N-II:N via Actinocin(9to1))",41,340,196
O=C(CCCN1CCC(O)(c2ccc(Cl)cc2)CC1)c1ccc(F)cc1 [Haloperidol],6,,
COc1cccc2c1C(=O)c1c(O)c3c(c(O)c1C2=O)C[C@@](O)(C(=O)CO)C[C@@H]3O[C@H]1C[C@H](N)[C@H](O)[C@H](C)O1 [Doxorubicin],4,293,143
Clc1ccccc1C(c1ccccc1)(c1ccccc1)n1ccnc1 [Clotrimazole],11,342,185
Tunicamycin,2,77,48
O=c1[nH]cc(F)c(=O)[nH]1 [5-Fluorouracil],2,316,143
CC[C@H]1OC(=O)[C@H](C)[C@@H](O[C@H]2C[C@@](C)(OC)[C@@H](O)[C@H](C)O2)[C@H](C)[C@@H](O[C@@H]2O[C@H](C)C[C@H](N(C)C)[C@H]2O)[C@](C)(O)C[C@@H](C)C(=O)[C@H](C)[C@@H](O)[C@]1(C)O [Erythromycin],1,25,16
CN(C/C=C/C#CC(C)(C)C)Cc1cccc2ccccc12 [Terbinafine],4,51,23
CCCCOc1ccc(C(=O)CCN2CCCCC2)cc1 [Dyclonine],10,331,144
